Source: EP2753335B1, “AN ANTHRACYCLINE FOR THE TREATMENT OF SEPSIS” (Instituto de Medicina Molecular, priority 2011, dated 2013)
Structures can show the parent of a compound that is named as a salt. At least one structure is not confirmed: it was looked up by name or label, or the drawing left a doubt.

Legend:
[1] = system: IL-1β; test: Concentration-response validation: IL-1β production by E. coli challenged THP-1 cells; format: cell-based, human; conditions: 1µM, 1 hour pre-incubation, E. coli 4 hours, ATM-dependent
Experimental: (§1) • Figure 1 represents a primary screen to identify compounds in the Spectrum Collection library that inhibit the secretion of TNF and IL-1β. (A) it is a two-dimension plot of TNF and IL-1β production Z scores calculated upon THP-1 cells challenge with PFA-fixed E. coli for 24 hours in the presence of 10µM of each compound. The square defines the area in which compounds are considered primary hits, i.e., inhibiting both TNF and IL-1β, (B) represents the IL-1β and TNF production by E. coli challenged THP-1 cells (4 hours) after a pre-incubation (1 hour) with increasing concentrations of epirubicin. Results shown represent mean ± standard deviation from triplicate samples in one of 3 independent assays. (C) is a transcriptional profiling of THP-1 cell line response to epirubicin and unsupervised clustering of microarray expression profiles. […] Plots depict relative expression of IL-1β, TNF, CCL2, CXCL10, STAT1, STAT2, START4 and STAT5a as assessed by qRT-PCR in E. coli challenged THP-1 cells (4 hours) after a pre-incubation (1 hour) with 5µM epirubicin. […] Results shown represent mean values ± SEM from triplicate readings per animal. […] (D) relates to the expression of IL-1β, TNF, CCL2 and CXCL10 as assessed by qRT-PCR in THP-1 cells treated as in (C). […]

[2] = system: TNF; test: Concentration-response validation: TNF production by E. coli challenged THP-1 cells; format: cell-based, human; conditions: 1µM, 1 hour pre-incubation, E. coli 4 hours, not ATM-dependent
Experimental: as §1

[3] = system: C57BL/6 mice subjected to CLP; test: Cecal ligation and puncture (CLP) mouse model of severe sepsis, survival; format: in vivo
Experimental: We choose the cecal ligation and puncture (CLP) mouse model to investigate the in vivo effects of epirubicin. In CLP, sepsis results from a polymicrobial infectious abdominal origin, leading to bacteraemia and a systemic inflammatory response^15.
Animal care and experimental procedures were conducted in accordance with Portuguese and US guidelines and regulations after approval by the respective local committees (Instituto de Medicina Molecular and Instituto Gulbenkian de Ciência). All mice used were 8-12 weeks old. Mice were bred and maintained under specific pathogen-free (SPF) conditions. C57BL/6 and C57BL/6 ATM^-/- were obtained from the Instituto Gulbenkian de Ciência (a kind gift from Dr. Vasco Barreto). C57BL/6 Nrf2^-/- mice were provided originally from the RIKEN BioResource Center (Koyadai, Tsukuba, Ibaraki, Japan)^31 and subsequently at the Institute Gulbenkian de Ciência. Cecal Ligation and Puncture was performed as described previously^15.

[4] = system: C57BL/6 mice, lethal LPS injection; test: LPS model of lethal septic shock, survival; format: in vivo; conditions: 0,6µg/g body weight at the time of procedure and again later
[5] = system: TNF, IL-1β, IL-6 and HMGB1; test: Plasma concentrations of inflammatory mediators 24 hours after CLP; format: in vivo, C57BL/6 mice; conditions: 0.6µg/g body weight at 0 and 24 hours post CLP
[6] = system: LDH, CK, ALT and Urea; test: Serological markers of organ damage 24 hrs after CLP; format: in vivo, C57BL/6 mice; conditions: treated vs untreated mice
[7] = system: ATM; test: Flow cytometry of activated ATM (phosphorylated at serine 1981) in THP-1 cells; format: cell-based, human; conditions: 1µM, alone (5 hours) or 1 hour pre-treatment plus E. coli (4 hours)
[8] = system: IL-1β, TNF, CCL2 and CXCL10 mRNA; test: RT-qPCR of inflammatory gene expression in E. coli challenged THP-1 cells; format: cell-based, human; conditions: 1µM, E. coli 4 hours, ATM-dependent for IL-1β, CCL2, CXCL10, ATM-independent for TNF
[9] = system: THP-1 cells; test: Free radical (ROS) production in THP-1 cells, flow cytometry with CM-H2DCFDA; format: cell-based, human; conditions: 1 hour pre-treatment, PFA-fixed E. coli 4 hours; ATM-dependent manner; legend prints 1mM
[10] = system: peritoneal cavity cells (neutrophils and others); test: Peritoneal infiltrating leukocytes 18 hours post CLP, flow cytometry; format: in vivo, C57BL/6 mice; conditions: 0.6µg/g body weight at the time of procedure
[11] = system: miR-146a; test: RT-qPCR of miR-146a expression in THP-1 or RAW cells; format: cell-based; conditions: RAW cells (data not shown) or THP-1 cells challenged with PFA-fixed E. coli, time course
[12] = system: THP-1 cells; test: Autophagy induction in THP-1 cells, flow cytometry with Cyto-ID Green; format: cell-based, human; conditions: 1µM, 1 hour pre-treatment, PFA-fixed E. coli 4 hours; ATM-dependent

SMILES: COc1cccc2c1C(=O)c1c(O)c3c(c(O)c1C2=O)C[C@@](O)(C(=O)CO)C[C@@H]3O[C@H]1C[C@H](N)[C@@H](O)[C@H](C)O1 [Epirubicin hydrochloride]
- secretion of IL-1β at single concentration [1]: able to decrease the secretion
- secretion of TNF at single concentration [2]: able to decrease the secretion
- survival after CLP in miR-146a-deficient vs wildtype mice ([3]; 0.6µg/g body weight at 0 and 24 hours post CLP): dependent on the presence of miR-146a
- survival after CLP in Nrf2-/- mice ([3]; 0.6µg/g body weight at 0 and 24 hours post CLP, Nrf2-/- C57BL/6): still protected
- survival after CLP in ATM-deficient (Atm-/-) vs wildtype mice ([3]; 0.6µg/g body weight at the time of procedure and 24 hours later, Atm-/- C57BL/6): absolutely necessary to mediate the protective effect
- survival after CLP in LC3b-deficient vs wildtype mice ([3]; 0.6µg/g body weight at the time of procedure and 24 hours later, LC3b-/- C57BL/6): required for the in vivo effect
- protection from death in the LPS model of lethal septic shock [4]: completely protected
- plasma HMGB1 after CLP [5]: dramatically reduced
- plasma IL-1β after CLP [5]: dramatically reduced
- plasma IL-6 after CLP [5]: dramatically reduced
- plasma TNF after CLP [5]: dramatically reduced
- serum concentration of ALT (liver) [6]: reduced to almost basal levels
- serum concentration of CK (muscle) [6]: reduced to almost basal levels
- serum concentration of LDH (lung and general cellular damage) [6]: reduced to almost basal levels
- serum concentration of Urea (kidney) [6]: reduced to almost basal levels
- activation of ATM (phospho-serine 1981) [7]: triggered the activation of ATM
- IL-1β, CCL2, CXCL10 and TNF mRNA expression levels [8]: down-regulation
- ROS generated by E. coli challenge of THP-1 cells [9]: able to counteract the increase in ROS
- viable neutrophils in the abdomen ([10]; 18 hours post CLP): higher, not lower, numbers of viable neutrophils
- inflammatory cell migration into the site of inflammation ([10]; peritoneal cavity 18 hours post CLP, Figure 7): does not counteract inflammatory cell migration
- induction of miR-146a expression [11]: does not support a role for epirubicin in the induction of this microRNA
- induction of autophagy in THP-1 cells [12]: induces autophagy
